Test [1] addresses T1, deubiquitinating enzyme 3 (DUB3), endogenous (human (endogenous in MDA-MB-231 and BT-549)) (UniProt Q6R6M4).
T1 sequence: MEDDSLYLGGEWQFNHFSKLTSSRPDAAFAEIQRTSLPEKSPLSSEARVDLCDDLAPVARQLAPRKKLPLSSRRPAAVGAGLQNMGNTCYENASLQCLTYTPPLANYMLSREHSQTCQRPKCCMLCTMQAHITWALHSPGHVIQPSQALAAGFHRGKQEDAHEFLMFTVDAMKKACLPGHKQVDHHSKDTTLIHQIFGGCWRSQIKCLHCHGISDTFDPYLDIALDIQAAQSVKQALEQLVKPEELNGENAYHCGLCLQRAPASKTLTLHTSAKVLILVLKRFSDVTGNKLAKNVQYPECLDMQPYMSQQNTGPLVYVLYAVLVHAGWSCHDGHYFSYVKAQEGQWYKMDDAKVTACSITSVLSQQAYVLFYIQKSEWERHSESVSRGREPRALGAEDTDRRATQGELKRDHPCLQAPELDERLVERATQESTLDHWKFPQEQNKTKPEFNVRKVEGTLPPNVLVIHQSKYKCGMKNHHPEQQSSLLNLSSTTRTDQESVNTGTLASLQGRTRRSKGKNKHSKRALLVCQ
Description: co-IP; endogenous proteins; cell lysates (MDA-MB-231; BT-549 too for SNAIL1-DUB3) immunoprecipitated with control IgG, anti-SNAIL1 or anti-DUB3 antibodies, immunoprecipitates blotted.

Protein sequences, listed by entry. Tags and fused reporters are not part of them.
UniProt O95863: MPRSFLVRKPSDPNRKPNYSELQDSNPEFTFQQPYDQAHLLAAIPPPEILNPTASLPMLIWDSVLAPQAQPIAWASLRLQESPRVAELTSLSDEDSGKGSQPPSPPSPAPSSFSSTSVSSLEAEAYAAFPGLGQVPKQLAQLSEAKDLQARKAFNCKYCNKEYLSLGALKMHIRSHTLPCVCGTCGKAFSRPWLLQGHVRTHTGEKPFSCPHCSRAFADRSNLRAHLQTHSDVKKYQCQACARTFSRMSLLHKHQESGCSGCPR
UniProt Q00534: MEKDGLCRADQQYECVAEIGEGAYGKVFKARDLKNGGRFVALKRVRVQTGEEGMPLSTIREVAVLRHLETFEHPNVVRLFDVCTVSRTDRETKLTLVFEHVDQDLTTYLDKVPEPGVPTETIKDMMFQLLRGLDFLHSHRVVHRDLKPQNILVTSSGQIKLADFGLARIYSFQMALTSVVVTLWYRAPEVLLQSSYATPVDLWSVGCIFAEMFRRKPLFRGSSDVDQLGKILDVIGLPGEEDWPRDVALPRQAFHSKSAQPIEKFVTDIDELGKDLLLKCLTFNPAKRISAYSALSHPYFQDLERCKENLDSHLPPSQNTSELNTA

In test [2] the target is SNAIL1 (endogenous) (human (endogenous in MDA-MB-231 and BT-549)) (UniProt O95863). The test is described as above.

Results are given in words; binding and its absence hold for the method and conditions named. Binding seen in cells or lysates may run through a third protein. Some entries that bind do so weakly or less than the wild type.

For the molecule “CDK6 (endogenous) (from UniProt Q00534 1-326) (enzyme)”, in test [1], the binding result is reported as “binds”.

In the case of “SNAIL1 (endogenous) (from UniProt O95863 1-264)”, the binding result in test [1] is recorded as “binds”.

B1: deubiquitinating enzyme 3 (DUB3), endogenous (enzyme, UniProt Q6R6M4 1-530)
chain: T1 sequence
As for B1, the binding result in test [2] is “binds”.

The values are drawn from PMC5228031, “CDK4/6-dependent activation of DUB3 regulates cancer metastasis through SNAIL1” (Nature Communications, 2017).
